Source: PMC5998047
Results are given in words; binding and its absence hold for the method and conditions named. In cells and extracts the contact can be indirect. Some entries that bind do so weakly or less than the wild type. Blank lines part the entries; values can stand above or below the substance they belong to.

Sequences of proteins named here, by UniProt entry; tags and fusion partners are left off.
UniProt Q9HBA0: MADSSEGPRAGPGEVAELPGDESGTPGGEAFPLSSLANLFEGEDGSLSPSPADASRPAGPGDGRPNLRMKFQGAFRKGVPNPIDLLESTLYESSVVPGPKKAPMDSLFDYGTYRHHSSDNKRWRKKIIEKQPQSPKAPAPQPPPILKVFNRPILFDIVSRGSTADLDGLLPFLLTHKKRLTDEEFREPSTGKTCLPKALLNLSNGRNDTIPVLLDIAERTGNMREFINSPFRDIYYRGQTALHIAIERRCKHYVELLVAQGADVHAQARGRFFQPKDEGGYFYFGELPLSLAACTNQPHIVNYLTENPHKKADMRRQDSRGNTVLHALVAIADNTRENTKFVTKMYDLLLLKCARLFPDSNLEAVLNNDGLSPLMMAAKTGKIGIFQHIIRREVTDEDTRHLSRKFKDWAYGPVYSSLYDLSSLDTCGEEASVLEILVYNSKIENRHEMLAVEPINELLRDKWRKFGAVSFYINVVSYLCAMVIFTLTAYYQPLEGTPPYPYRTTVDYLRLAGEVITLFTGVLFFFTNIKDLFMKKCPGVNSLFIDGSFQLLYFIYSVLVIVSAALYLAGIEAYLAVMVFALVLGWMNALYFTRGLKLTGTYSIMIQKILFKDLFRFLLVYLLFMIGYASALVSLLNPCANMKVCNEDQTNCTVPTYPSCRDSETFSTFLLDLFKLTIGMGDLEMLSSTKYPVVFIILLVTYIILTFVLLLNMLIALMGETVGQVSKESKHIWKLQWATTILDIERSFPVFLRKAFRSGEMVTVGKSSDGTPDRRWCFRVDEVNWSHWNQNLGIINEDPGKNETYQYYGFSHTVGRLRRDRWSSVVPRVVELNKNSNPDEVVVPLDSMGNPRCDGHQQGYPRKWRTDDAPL
UniProt O00571: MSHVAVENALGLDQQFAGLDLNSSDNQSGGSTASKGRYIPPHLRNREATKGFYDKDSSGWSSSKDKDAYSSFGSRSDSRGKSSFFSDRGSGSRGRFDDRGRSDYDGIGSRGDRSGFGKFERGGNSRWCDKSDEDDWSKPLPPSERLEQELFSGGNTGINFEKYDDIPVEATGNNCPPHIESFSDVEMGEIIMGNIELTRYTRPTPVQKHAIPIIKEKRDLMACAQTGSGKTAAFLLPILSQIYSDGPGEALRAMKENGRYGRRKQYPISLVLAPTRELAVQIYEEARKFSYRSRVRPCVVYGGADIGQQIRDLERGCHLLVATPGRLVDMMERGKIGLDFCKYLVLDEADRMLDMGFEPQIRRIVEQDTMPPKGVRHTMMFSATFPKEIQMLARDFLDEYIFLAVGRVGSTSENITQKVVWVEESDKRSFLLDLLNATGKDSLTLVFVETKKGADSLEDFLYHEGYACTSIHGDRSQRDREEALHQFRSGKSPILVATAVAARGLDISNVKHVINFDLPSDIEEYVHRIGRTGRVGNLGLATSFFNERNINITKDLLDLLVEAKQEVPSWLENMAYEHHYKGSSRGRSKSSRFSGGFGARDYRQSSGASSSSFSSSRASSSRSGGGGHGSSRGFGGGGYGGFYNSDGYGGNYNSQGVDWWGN

Columns and labels:
TRPV4-CFP (human) = TRPV4-CFP (human) (UniProt Q9HBA0); assay: FRET or BRET; acceptor photobleaching FRET in HeLa cells expressing TRPV4-CFP and DDX3X-YFP (or free soluble YFP); CFP increase after YFP bleaching; control or 10 nM GSK1016790A
[1] = target: endogenous TRPV4 (Huh7 cells) (human (endogenous in Huh7)) (UniProt Q9HBA0); assay: co-IP; endogenous proteins, lysate of about 2.3 x 10^8 Huh7 cells; anti-TRPV4 antibody (against the final 20 aa of human TRPV4) overnight, protein G beads; blot with anti-DDX3X; control and GSK1016790A-treated cells (interaction reduced with GSK1016790A)
DDX3X-Myc(tag) = DDX3X-Myc(tag) (UniProt O00571); assay: co-IP; reversed co-IP in HEK293 cells: anti-Myc antibody to immunoprecipitate DDX3X, anti-V5 antibody to detect TRPV4
TRPV4-V5(tag) (human) = TRPV4-V5(tag) (human) (UniProt Q9HBA0); assay: co-IP; HEK293 cells overexpressing TRPV4-V5 and DDX3X-Myc; lysate (0.5% NP40, 150 mM NaCl) with anti-V5 antibody overnight at 4 C, protein G beads; DDX3X detected by blot; control and GSK1016790A-treated cells (band reduced with GSK1016790A)

binding (TRPV4-CFP (human)): binds
Substance: DDX3X-YFP (from UniProt O00571 1-662) (enzyme)

binding [1]: binds
Substance: endogenous DDX3X (Huh7 cells) (from UniProt O00571 1-662) (enzyme)

binding (DDX3X-Myc(tag)): binds
Substance: TRPV4-V5(tag) (from UniProt Q9HBA0 1-871) (receptor)

binding (TRPV4-V5(tag) (human)): binds
Substance: DDX3X-Myc(tag) (from UniProt O00571 1-662) (enzyme)
